Laboratory results from publication doi:10.1101/2023.03.13.532366.
These are yes or no findings as the source states them, for the method shown. Some results given as binding are weak or reduced against the parent protein; the word gives no strength. Where a sequence is shown, tags or fusion partners need not be part of it.

Molecular target: T1, mIL-12Rβ1_(D1-D2)-His6 (crystallised with mIL-12B_(C197S)) (mouse) (UniProt Q60837)
T1 sequence: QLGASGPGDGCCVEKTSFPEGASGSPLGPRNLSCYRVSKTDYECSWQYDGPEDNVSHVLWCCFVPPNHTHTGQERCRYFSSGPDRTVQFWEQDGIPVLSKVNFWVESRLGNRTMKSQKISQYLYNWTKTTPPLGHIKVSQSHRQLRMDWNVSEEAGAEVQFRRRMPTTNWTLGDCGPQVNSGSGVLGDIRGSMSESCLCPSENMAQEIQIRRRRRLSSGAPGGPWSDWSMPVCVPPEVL
Assay: crystal structure

binding: binds
B1: mIL-12B_(C197S) (mIL-12b_(C197S)-His6) (protein, UniProt P43432 23-335)
chain: MWELEKDVYVVEVDWTPDAPGETVNLTCDTPEEDDITWTSDQRHGVIGSGKTLTITVKEFLDAGQYTCHKGGETLSHSHLLLHKKENGIWSTEILKNFKNKTFLKCEAPNYSGRFTCSWLVQRNMDLKFNIKSSSSSPDSRAVTCGMASLSAEKVTLDQRDYEKYSVSCQEDVTSPTAEETLPIELALEARQQNKYENYSTSFFIRDIIKPDPPKNLQMKPLKNSQVEVSWEYPDSWSTPHSYFSLKFFVRIQRKKEKMKETEEGCNQKGAFLVEKTSTEVQCKGGNVCVQAQDRYYNSSCSKWACVPCRVRS
